Source: PMC7266957

Tested on: AcrF7 (Pseudomonas aeruginosa)
Experiment: BLI
Settings: 500 nM AcrF7 alone, very low shift, weak non-specific interaction; recombinant protein; protein details: His-tag; label: 5' biotin-TEG

CGCCGGTTATAGGTTTGCGCGTCTTGCTGGGCGATAGGACGTGGGATATCTTTTTGATATCCCACGTCCTATCGCCCAGCAAGACGCGCAAACCTATAACCGGCG (double strand) [Complementary (GG PAM)]
binding result: binds more weakly

Construct, isoform or probe ends are uncertain for at least one entry. The comparison behind a weaker result is the experiment's own reference, which may not be listed here.
